Literature values, collected in US7160867B2 (Isotechnika, Inc., priority 2003, dated 2007).

Conditions: cited from earlier work

## CO[C@H]1C[C@@H]2CC[C@@H](C)[C@@](O)(O2)C(=O)C(=O)N2CCCC[C@H]2C(=O)O[C@H]([C@H](C)C[C@@H]2CC[C@@H](O)[C@H](OC)C2)CC(=O)[C@H](C)/C=C(\C)[C@@H](O)[C@@H](OC)C(=O)[C@H](C)C[C@H](C)/C=C/C=C/C=C/1C [Rapamycin]
  solubility in water: sparingly soluble
